pIC50: −log10 of the molar value.
System: JAK signaling
Experiment: JAK selectivity assay, HEK blue IL-12 reporter
Assay type: cell-based
Settings: 24 h, 12.5 ng/ml IL-12, 24 h
Procedure: The cells were purchased from Invivogen (Catalog Nr: hkb-il12) and maintained according to vendor instructions. On the day of the experiment, cells were harvested by repeated tapping of the flask to shake loose the cells attached to the bottom of the flask. Then, cells were harvested, washed and resuspended in DMEM media supplemented with 10% fetal calf serum. 30 Microliters of cell suspension was seeded into a 384-well tissue culture-coated plate containing approximately 10,000 total cells. […] Using the ECHO “Dose Response” software, the test compound was added in duplicate wells with a 3-fold dilution curve. DMSO was back-filled to normalize the DMSO across all wells. […] After 30 minutes of incubation at room temperature, the optical density was measured at 620 nanometer using the Perkin Elmer Envision plate reader. A color change can be detected at this wavelength when secreted alkaline phosphatase, which is triggered by IL-12 signaling, is present in the supernatant. […]

- pIC50: > 6.52
Compound: C[C@@H]1CCN(C(=O)CC#N)C[C@@H]1N(C)c1ncnc2[nH]ccc12 [Tofacitinib, tofacitinib]
